{"sequences": {"note": "Protein sequences, listed by entry. Tags and fused reporters are not part of them. Lines headed by an entry give the natural chain unless they say otherwise; changes in a name come on top.", "UniProt Q9Y490": "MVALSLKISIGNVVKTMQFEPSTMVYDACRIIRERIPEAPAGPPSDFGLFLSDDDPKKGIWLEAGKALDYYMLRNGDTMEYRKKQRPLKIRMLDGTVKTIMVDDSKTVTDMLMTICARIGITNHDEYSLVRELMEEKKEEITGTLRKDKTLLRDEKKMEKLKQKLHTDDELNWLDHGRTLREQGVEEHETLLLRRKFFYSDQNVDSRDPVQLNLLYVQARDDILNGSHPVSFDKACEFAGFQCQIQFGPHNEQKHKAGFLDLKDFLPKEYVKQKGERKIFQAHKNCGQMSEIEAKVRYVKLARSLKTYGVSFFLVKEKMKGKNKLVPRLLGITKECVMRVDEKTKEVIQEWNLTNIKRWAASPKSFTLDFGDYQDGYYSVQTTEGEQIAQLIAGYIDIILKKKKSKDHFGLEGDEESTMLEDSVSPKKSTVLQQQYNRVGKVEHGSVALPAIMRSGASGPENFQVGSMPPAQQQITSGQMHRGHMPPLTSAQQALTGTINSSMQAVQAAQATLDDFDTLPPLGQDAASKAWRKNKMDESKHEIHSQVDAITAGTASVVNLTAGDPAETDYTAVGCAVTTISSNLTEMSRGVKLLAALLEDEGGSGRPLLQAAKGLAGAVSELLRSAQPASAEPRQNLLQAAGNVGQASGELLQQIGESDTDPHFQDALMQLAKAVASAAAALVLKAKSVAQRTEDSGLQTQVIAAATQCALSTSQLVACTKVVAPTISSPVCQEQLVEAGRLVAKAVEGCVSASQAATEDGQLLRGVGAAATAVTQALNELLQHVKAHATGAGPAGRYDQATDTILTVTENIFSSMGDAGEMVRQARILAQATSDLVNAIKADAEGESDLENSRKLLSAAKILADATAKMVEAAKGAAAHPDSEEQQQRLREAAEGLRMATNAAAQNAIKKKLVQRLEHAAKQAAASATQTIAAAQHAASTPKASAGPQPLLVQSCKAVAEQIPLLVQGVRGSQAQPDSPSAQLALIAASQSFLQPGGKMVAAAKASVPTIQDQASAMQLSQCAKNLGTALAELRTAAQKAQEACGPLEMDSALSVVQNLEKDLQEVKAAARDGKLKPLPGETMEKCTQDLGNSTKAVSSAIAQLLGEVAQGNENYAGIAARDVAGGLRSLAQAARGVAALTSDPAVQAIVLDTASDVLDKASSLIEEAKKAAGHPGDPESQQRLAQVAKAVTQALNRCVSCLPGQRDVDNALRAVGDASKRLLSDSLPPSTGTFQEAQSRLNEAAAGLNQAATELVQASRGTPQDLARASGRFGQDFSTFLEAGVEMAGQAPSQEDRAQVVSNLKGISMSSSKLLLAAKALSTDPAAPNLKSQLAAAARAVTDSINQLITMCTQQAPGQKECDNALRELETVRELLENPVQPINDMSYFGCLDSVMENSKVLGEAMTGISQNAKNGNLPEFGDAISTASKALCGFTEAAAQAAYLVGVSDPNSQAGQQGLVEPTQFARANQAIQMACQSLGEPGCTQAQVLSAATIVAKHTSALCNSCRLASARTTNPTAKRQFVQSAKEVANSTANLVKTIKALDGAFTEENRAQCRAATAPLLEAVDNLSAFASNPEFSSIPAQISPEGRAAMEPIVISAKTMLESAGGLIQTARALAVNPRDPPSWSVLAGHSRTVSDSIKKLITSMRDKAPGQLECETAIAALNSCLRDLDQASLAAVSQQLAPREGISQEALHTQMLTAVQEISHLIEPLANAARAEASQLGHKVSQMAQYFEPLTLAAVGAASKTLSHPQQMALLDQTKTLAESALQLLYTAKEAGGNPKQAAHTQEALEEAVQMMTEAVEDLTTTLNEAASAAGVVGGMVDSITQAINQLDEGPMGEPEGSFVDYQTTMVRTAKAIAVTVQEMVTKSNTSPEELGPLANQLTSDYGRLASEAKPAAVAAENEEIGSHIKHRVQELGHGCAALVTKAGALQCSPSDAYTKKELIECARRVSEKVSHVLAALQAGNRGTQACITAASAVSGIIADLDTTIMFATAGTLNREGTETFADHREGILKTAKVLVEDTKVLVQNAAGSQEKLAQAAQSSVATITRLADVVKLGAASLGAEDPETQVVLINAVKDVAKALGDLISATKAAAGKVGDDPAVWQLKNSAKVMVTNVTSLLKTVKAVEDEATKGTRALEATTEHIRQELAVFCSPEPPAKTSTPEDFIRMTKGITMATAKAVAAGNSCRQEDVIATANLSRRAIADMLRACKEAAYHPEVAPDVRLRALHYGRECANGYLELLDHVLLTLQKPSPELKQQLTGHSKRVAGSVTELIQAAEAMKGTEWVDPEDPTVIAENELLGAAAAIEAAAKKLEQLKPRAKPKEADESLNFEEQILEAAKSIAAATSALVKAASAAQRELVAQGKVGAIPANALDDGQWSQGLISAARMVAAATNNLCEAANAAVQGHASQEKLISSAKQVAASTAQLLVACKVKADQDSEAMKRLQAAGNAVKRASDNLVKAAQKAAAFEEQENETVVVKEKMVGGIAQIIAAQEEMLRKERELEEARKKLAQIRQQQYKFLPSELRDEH", "UniProt Q9Y520": "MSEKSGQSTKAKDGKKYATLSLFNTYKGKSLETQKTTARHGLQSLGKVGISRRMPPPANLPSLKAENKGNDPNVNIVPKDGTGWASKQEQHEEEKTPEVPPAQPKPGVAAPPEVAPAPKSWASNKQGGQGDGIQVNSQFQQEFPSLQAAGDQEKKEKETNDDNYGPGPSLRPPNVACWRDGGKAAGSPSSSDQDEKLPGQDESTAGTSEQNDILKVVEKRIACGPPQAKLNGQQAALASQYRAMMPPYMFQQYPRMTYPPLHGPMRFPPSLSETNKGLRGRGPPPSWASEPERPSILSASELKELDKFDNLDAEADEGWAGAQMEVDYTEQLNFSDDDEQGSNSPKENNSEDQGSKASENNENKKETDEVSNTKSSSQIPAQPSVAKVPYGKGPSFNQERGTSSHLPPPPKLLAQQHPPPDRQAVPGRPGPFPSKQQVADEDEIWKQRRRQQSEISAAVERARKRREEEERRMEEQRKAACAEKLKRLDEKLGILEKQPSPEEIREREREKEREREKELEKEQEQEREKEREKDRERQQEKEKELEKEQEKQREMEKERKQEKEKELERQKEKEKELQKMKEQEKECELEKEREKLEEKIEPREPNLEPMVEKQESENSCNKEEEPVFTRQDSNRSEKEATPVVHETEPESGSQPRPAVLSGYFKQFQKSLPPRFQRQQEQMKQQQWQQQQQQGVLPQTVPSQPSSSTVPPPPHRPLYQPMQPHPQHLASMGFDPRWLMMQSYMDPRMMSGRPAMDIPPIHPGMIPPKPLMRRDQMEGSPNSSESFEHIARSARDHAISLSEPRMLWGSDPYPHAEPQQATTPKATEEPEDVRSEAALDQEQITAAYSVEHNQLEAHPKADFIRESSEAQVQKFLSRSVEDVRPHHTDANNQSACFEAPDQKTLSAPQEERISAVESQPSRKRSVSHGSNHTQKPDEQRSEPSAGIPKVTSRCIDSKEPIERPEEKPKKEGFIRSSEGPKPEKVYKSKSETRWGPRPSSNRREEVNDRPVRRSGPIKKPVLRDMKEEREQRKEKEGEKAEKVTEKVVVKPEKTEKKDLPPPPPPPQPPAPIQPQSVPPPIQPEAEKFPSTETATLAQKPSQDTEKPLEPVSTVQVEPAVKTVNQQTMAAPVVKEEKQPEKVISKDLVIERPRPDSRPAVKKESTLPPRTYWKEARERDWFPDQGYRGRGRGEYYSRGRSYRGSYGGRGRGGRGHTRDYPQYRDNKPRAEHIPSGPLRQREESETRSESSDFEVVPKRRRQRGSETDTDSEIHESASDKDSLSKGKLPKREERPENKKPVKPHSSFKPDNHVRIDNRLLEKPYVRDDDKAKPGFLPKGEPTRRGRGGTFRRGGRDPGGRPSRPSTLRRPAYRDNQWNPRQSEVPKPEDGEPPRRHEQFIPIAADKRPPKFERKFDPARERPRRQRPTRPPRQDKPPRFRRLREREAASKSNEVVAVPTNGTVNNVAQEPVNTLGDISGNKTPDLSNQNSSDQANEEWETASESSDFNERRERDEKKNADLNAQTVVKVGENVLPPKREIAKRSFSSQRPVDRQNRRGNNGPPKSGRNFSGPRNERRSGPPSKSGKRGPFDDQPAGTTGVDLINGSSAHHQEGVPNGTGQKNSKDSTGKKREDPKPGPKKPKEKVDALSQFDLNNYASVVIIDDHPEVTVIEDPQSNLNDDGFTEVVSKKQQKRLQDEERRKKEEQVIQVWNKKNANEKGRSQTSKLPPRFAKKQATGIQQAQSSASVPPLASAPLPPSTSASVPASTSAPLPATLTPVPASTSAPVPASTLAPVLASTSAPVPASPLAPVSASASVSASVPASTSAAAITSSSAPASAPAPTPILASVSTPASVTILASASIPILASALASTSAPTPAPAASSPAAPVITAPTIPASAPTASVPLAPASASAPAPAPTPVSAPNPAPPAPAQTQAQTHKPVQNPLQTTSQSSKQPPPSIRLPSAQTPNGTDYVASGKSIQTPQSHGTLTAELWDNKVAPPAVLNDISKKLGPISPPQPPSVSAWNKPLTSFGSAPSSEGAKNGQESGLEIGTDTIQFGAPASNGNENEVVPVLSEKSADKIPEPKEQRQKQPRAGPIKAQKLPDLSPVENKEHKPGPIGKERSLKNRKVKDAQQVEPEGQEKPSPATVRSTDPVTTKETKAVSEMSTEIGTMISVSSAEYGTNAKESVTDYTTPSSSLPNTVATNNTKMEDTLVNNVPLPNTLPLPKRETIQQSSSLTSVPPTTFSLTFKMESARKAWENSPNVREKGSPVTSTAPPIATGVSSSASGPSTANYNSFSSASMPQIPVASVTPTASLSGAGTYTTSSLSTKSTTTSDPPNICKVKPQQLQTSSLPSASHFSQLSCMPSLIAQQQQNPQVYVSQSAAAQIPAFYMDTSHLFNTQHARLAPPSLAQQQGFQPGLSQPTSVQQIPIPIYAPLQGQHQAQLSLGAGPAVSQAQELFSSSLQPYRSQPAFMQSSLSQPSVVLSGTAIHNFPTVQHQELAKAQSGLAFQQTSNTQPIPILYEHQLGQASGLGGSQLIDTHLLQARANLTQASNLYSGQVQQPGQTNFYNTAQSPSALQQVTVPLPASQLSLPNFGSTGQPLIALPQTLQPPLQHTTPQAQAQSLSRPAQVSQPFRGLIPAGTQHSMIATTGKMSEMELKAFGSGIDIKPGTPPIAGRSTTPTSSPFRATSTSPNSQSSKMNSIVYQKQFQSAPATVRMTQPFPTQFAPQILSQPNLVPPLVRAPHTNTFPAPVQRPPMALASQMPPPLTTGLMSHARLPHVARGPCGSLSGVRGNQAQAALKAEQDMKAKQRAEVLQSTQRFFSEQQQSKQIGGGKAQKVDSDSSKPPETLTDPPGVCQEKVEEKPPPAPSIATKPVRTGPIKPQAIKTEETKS", "UniProt Q9Y617": "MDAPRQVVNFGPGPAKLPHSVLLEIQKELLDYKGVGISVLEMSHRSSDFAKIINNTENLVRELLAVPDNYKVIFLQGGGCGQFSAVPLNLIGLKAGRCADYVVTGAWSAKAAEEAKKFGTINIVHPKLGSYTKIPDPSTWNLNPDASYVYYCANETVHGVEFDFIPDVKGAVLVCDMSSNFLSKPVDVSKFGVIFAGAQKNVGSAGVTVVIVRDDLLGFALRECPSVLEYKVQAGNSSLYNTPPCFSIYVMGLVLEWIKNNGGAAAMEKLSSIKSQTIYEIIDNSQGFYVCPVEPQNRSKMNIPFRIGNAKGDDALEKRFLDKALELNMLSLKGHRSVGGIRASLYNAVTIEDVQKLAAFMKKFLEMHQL", "UniProt Q9Y4W2": "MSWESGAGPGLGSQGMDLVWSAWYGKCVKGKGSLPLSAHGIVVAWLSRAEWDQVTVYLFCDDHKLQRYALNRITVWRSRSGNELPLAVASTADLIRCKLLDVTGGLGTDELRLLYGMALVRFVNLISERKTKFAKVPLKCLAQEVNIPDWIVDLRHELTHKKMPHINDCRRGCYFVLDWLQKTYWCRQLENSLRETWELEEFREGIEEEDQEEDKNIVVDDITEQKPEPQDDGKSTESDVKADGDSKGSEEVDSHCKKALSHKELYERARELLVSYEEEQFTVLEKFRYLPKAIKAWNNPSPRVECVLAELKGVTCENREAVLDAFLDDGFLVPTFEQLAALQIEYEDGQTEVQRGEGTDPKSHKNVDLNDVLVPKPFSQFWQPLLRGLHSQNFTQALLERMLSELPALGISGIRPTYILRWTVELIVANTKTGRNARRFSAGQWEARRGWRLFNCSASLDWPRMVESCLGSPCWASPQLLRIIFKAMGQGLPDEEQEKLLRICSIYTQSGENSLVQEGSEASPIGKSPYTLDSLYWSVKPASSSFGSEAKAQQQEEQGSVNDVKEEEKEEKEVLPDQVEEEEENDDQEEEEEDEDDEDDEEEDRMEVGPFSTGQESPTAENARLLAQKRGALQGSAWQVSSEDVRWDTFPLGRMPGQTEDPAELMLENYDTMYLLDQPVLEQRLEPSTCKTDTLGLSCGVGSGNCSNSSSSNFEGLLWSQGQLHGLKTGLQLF"}, "source": "the supplement of paper PMC11006884", "note": "Only a part is listed here, and it is no random draw."}
{"compound": "COC(=O)C#Cc1ccccc1 [methyl 3-phenylpropiolate]", "test": "log2 ratio of iodoacetamide-alkyne labeling of the cysteine site, DMSO over compound (competition); higher = stronger covalent engagement of the cysteine by the compound, active = 1 or more", "details": "500 µM; treatment time 1 h; system: HEK293T cell lysate", "outline": "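The log2 competition ratio per cysteine is defined as mean reporter intensity in control channels over mean reporter intensity in compound channels. Lysate from HEK293T cells (2 mg/mL) received electrophile (500 µM) or vehicle for 1 h at ambient temperature, followed by iodoacetamide alkyne for 1 h. Samples were clicked to sCIP-TMT reagents, pooled, trypsin-digested overnight at 37 °C, streptavidin-enriched, acid-eluted and run on Orbitrap Eclipse LC-MS/MS with FAIMS, with quantification in FragPipe. Three replicates with duplicate channels were used, and any cysteine quantified in only one replicate was excluded.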"}
{"target": "WIPI2 C393 (UniProt Q9Y4P8)", "log2 ratio of iodoacetamide-alkyne labeling": "active: 1.22"}
{"target": "PPME1 C347 (UniProt Q9Y570)", "log2 ratio of iodoacetamide-alkyne labeling": "inactive: 0.177"}
{"target": "TLN1 C2161 (UniProt Q9Y490)", "log2 ratio of iodoacetamide-alkyne labeling": "inactive: -0.0698"}
{"target": "TAF6L C41 (UniProt Q9Y6J9)", "log2 ratio of iodoacetamide-alkyne labeling": "inactive: 0.0349"}
{"target": "FHOD1 C502 (UniProt Q9Y613)", "log2 ratio of iodoacetamide-alkyne labeling": "inactive: 0.926"}
{"target": "FHOD1 C650 (UniProt Q9Y613)", "log2 ratio of iodoacetamide-alkyne labeling": "inactive: 0.277"}
{"target": "UniProt Q9Y678_C516", "log2 ratio of iodoacetamide-alkyne labeling": "inactive: 0.136"}
{"target": "UniProt Q9Y6E0_C415", "log2 ratio of iodoacetamide-alkyne labeling": "inactive: 0.286"}
{"target": "CEP170B C1570 (UniProt Q9Y4F5)", "log2 ratio of iodoacetamide-alkyne labeling": "inactive: 0.401"}
{"target": "UniProt Q9Y520_C223", "log2 ratio of iodoacetamide-alkyne labeling": "inactive: 0.239"}
{"target": "NUBP2 C72 (UniProt Q9Y5Y2)", "log2 ratio of iodoacetamide-alkyne labeling": "inactive: 0.921"}
{"target": "TACC3 C206 (UniProt Q9Y6A5)", "log2 ratio of iodoacetamide-alkyne labeling": "inactive: -0.132"}
{"target": "UniProt Q9Y5J5_C87", "log2 ratio of iodoacetamide-alkyne labeling": "inactive: 0.486"}
{"target": "TCAF1 C487 (UniProt Q9Y4C2)", "log2 ratio of iodoacetamide-alkyne labeling": "inactive: 0.36"}
{"target": "TLN1 C1363 (UniProt Q9Y490)", "log2 ratio of iodoacetamide-alkyne labeling": "inactive: 0.21"}
{"target": "UniProt Q9Y520_C895", "log2 ratio of iodoacetamide-alkyne labeling": "inactive: 0.435"}
{"target": "SAR1B C102 (UniProt Q9Y6B6)", "log2 ratio of iodoacetamide-alkyne labeling": "inactive: -0.266"}
{"target": "TLN1 C2243 (UniProt Q9Y490)", "log2 ratio of iodoacetamide-alkyne labeling": "inactive: 0.0807"}
{"target": "SAR1B C178 (UniProt Q9Y6B6)", "log2 ratio of iodoacetamide-alkyne labeling": "inactive: 0.0167"}
{"target": "GMPPB C245 (UniProt Q9Y5P6)", "log2 ratio of iodoacetamide-alkyne labeling": "inactive: 0.331"}
{"target": "UniProt Q9Y520_C481", "log2 ratio of iodoacetamide-alkyne labeling": "inactive: 0.63"}
{"target": "TBL2 C335 (UniProt Q9Y4P3)", "log2 ratio of iodoacetamide-alkyne labeling": "inactive: 0.9"}
{"target": "TELO2 C30 (UniProt Q9Y4R8)", "log2 ratio of iodoacetamide-alkyne labeling": "inactive: 0.419"}
{"target": "ARIH1 C327 (UniProt Q9Y4X5)", "log2 ratio of iodoacetamide-alkyne labeling": "inactive: 0.0642"}
{"target": "UniProt Q9Y520_C2340", "log2 ratio of iodoacetamide-alkyne labeling": "inactive: 0.672"}
{"target": "TLN1 C29 (UniProt Q9Y490)", "log2 ratio of iodoacetamide-alkyne labeling": "inactive: 0.188"}
{"target": "PSAT1 C80 (UniProt Q9Y617)", "log2 ratio of iodoacetamide-alkyne labeling": "inactive: 0.183"}
{"target": "UniProt Q9Y6E0_C394", "log2 ratio of iodoacetamide-alkyne labeling": "inactive: 0.37"}
{"target": "PPME1 C381 (UniProt Q9Y570)", "log2 ratio of iodoacetamide-alkyne labeling": "active: 1.48"}
{"target": "TLN1 C956 (UniProt Q9Y490)", "log2 ratio of iodoacetamide-alkyne labeling": "inactive: 0.185"}
{"target": "LAS1L C140 (UniProt Q9Y4W2)", "log2 ratio of iodoacetamide-alkyne labeling": "inactive: 0.848"}
